Among the data in article PMC11414398 are binding values, retold here.

The chains behind the UniProt entries cited, without tags or fusion partners.
UniProt O95568: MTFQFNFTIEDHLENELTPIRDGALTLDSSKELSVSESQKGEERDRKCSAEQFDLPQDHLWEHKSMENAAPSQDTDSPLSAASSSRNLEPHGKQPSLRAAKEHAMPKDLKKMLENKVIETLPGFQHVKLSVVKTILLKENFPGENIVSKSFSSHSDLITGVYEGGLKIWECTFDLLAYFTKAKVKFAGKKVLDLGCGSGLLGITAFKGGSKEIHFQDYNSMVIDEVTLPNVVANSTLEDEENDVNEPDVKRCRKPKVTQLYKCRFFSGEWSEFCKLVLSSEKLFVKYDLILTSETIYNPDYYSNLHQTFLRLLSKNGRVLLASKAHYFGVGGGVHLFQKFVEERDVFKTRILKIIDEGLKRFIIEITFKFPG

For the assay, the target named is Myc-tagged METTL18 (wild type) (human) (UniProt O95568). The assay is described as follows: affinity purification with mass spectrometry; anti-Myc immunoprecipitation from whole lysates of Myc- or Myc-METTL18-overexpressing MDA-MB-231 cells; SDS-PAGE, silver staining, bands cut out and analysed by LC-MS/MS.

Results are given in words; binding and its absence hold for the method and conditions named. In cells and extracts the contact can be indirect. A yes stands for co-enrichment or nearness to the bait. Other partners may have been found.

Turning to HSP90AA1 (from UniProt P07900 1-732), the binding result was “binds”.
